From PubChem BioAssay AID2508 (National Center for Advancing Translational Sciences (NCATS), 2010)
Inconclusive results, whose numbers are uncertain, are shown. A potency beside an inconclusive call is a rough fit, not a confirmed value.

Experiment: Confirmatory Assay for General miRNAs Modulators and/or Inhibitors/Activators of miR-21
Conditions: HeLa miR-21 FLuc reporter, luminescence, 48 h; active = well fitted inhibition curve with a large enough effect; inconclusive = small, poorly fitted or top-dose-only effect, or effect the other way; inactive = no such curve, though single readings can be large or run the other way
Excerpt: MLSCN Grant: 1 R21 NS059478-01 Assay Provider: Qihong Huang, The Wistar Institute NCGC Assay Overview: MicroRNAs (miRNAs) are endogenously encoded small (~20-25 nucleotides), nonprotein-coding RNAs that are involved in post-transcriptional repression of target messenger RNAs (mRNAs) (Le and Hannon, 2004). Estimated to be involved in the regulation of 30% of all protein-coding mRNAs (Filipowicz et al., 2008), miRNAs play a significant role in many biological processes including cellular differentiation and tissue development (Ghildiyal and Zamore, 2009).
NCGC Assay Protocol Summary: Reagents: HeLa cells stably expressing firefly luciferase (FLuc) under the control of a CMV promoter (upstream) and a miR-21 binding sequence directly downstream of the gene. These cells endogenously express miR-21. Control compounds used were compound C3 (provided by collaborator), N6-phenyladenosine (MP Biomedicals, 0215379625), and DMSO. Assay Summary: 6uL of HeLa miR-21-FLuc cells in assay buffer (DMEM, Invitrogen #21063-029; 10% FBS, HyClone #SH30071.03) were dispensed at 2000cells/well (3.3 x 10^5 cells/mL) into Greiner solid-white TC-treated 1536-well plates using a Multidrop Combi (Thermo Fisher Scientific). […] After a 15 minute incubation to allow for cell lysis, luciferase activity was measured using a ViewLux CCD imager (PerkinElmer), with an average exposure time of 2-12 seconds. […]

Compound	Potency
COc1ccccc1CNC(=O)CCC1N=C2c3ccccc3N=C(SCc3cccc(Cl)c3)N2C1=O (configuration not stated)	inconclusive: 10 µM [activator, partial curve]
C[C@]12CC[C@H]3C(=CCc4cc(O)ccc43)[C@@H]1CCC2=O	inconclusive: 1.79 µM [falling, full curve, poor fit]
